In experiment [1] the target is T1, PDZD8 fused with BirA*-FLAG (BioID bait) (human) (UniProt Q8NEN9).
T1 sequence: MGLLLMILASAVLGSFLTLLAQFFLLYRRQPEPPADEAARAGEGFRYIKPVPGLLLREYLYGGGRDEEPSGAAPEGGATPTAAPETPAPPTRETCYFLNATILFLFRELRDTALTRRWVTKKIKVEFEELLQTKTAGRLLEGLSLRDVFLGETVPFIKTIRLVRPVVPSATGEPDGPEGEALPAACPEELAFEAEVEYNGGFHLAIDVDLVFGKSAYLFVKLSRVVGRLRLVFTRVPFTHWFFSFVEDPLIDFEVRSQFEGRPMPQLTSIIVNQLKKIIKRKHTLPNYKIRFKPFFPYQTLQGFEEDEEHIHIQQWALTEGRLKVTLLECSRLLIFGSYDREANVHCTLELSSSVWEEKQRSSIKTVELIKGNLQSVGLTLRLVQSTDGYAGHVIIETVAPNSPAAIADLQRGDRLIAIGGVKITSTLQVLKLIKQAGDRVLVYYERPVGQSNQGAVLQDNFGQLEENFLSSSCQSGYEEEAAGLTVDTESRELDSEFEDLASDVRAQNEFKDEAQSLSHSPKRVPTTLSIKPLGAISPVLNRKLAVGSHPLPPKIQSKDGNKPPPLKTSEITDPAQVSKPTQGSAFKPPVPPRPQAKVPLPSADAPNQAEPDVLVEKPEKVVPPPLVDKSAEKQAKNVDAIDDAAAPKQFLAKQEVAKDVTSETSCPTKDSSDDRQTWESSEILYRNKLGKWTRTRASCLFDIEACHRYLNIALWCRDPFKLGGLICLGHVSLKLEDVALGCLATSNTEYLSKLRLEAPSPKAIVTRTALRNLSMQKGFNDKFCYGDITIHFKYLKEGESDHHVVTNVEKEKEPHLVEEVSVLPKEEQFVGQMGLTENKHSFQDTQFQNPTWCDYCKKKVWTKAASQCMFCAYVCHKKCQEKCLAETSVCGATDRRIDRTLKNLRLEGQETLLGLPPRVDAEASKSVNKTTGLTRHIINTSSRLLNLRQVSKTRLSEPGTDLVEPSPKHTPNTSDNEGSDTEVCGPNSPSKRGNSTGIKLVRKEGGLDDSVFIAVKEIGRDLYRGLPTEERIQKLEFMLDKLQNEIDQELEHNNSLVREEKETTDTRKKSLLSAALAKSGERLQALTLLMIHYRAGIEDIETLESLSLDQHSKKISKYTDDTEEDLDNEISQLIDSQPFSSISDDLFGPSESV
Nature of the experiment: proximity labelling; BioID in stable inducible Flp-In T-REx 293 cells expressing BirA*-FLAG baits; mass spectrometry of biotinylated preys; SAINTexpress, two biological replicates per bait, 50 negative control runs, BFDR threshold 1%.

By UniProt entry, the sequences of proteins in these tests, tags left out.
UniProt Q14318: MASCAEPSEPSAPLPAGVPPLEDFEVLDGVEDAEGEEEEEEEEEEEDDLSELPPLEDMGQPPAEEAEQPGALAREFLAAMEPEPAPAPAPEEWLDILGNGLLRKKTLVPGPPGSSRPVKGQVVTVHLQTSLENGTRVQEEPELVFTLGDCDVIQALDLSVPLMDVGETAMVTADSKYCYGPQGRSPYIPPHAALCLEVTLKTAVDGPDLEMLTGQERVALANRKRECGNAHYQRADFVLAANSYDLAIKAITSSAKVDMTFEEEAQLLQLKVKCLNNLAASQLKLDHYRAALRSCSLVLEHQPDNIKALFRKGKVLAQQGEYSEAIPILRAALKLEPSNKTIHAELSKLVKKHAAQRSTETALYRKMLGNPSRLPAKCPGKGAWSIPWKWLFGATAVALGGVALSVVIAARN
UniProt P51648: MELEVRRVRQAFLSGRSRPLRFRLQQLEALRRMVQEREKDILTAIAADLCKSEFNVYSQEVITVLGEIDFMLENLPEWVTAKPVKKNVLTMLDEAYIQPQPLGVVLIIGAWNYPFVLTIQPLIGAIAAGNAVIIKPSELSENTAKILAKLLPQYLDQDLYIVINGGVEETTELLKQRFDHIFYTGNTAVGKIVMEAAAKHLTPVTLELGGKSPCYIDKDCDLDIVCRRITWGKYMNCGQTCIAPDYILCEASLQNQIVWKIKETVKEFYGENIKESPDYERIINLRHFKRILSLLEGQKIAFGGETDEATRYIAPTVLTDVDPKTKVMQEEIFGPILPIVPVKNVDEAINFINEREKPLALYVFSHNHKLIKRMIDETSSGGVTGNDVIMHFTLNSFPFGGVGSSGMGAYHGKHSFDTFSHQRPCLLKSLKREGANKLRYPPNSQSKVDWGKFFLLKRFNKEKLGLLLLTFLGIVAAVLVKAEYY

In experiment [2] the target is T2, TEX2 fused with BirA*-FLAG (BioID bait) (human) (UniProt Q8IWB9).
T2 sequence: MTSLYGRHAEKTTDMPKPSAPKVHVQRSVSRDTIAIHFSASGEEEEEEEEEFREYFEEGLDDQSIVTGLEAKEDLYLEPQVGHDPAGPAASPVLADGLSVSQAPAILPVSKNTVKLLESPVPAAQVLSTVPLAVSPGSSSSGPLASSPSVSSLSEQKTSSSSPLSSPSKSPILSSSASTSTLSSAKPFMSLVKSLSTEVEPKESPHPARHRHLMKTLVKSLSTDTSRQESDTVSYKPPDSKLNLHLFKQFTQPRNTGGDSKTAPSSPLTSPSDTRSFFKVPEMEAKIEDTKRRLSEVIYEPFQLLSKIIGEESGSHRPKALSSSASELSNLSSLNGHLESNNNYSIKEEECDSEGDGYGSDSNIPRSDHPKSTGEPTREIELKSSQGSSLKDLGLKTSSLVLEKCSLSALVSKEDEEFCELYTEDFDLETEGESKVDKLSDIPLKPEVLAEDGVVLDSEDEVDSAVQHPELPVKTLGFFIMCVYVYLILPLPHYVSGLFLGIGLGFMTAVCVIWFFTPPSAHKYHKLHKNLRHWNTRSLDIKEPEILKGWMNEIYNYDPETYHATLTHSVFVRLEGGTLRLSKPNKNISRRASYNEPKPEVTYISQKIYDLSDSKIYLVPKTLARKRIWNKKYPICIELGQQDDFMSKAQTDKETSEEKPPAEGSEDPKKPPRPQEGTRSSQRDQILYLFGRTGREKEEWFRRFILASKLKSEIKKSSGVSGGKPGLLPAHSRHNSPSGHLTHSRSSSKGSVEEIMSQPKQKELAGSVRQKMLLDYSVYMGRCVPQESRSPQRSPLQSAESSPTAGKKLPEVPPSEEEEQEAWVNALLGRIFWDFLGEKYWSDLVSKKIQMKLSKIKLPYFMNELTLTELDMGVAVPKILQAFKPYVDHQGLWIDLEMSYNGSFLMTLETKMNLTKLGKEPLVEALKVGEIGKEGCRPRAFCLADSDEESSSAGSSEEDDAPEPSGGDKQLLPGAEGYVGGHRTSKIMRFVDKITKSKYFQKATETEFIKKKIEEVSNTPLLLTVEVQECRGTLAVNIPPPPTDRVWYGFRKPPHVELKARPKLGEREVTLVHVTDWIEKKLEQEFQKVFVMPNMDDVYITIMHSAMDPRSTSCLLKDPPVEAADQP
The description is as above.

No constants are given. Whether binding was seen depends on the method and setting. Binding seen in cells or lysates may run through a third protein. These calls come from enrichment with a bait or labelling near it, and not all partners need be listed. Tags and fused reporters may be left off the sequences shown.

With FKBP8 (from UniProt Q14318 1-412), the binding entry in experiment [1] and in experiment [2] was “binds” each time.

Consider ALDH3A2 (from UniProt P51648 1-485), for which the binding entry in experiment [1] and in experiment [2] was “binds” each time.

(Values after article PMC10627786.)
